{
  "sequences": {"note": "Amino acid sequences for entries named in this document (tags omitted). Residues count along the entry.", "UniProt Q9UM73, 19-1620 L1196M limits assumed": "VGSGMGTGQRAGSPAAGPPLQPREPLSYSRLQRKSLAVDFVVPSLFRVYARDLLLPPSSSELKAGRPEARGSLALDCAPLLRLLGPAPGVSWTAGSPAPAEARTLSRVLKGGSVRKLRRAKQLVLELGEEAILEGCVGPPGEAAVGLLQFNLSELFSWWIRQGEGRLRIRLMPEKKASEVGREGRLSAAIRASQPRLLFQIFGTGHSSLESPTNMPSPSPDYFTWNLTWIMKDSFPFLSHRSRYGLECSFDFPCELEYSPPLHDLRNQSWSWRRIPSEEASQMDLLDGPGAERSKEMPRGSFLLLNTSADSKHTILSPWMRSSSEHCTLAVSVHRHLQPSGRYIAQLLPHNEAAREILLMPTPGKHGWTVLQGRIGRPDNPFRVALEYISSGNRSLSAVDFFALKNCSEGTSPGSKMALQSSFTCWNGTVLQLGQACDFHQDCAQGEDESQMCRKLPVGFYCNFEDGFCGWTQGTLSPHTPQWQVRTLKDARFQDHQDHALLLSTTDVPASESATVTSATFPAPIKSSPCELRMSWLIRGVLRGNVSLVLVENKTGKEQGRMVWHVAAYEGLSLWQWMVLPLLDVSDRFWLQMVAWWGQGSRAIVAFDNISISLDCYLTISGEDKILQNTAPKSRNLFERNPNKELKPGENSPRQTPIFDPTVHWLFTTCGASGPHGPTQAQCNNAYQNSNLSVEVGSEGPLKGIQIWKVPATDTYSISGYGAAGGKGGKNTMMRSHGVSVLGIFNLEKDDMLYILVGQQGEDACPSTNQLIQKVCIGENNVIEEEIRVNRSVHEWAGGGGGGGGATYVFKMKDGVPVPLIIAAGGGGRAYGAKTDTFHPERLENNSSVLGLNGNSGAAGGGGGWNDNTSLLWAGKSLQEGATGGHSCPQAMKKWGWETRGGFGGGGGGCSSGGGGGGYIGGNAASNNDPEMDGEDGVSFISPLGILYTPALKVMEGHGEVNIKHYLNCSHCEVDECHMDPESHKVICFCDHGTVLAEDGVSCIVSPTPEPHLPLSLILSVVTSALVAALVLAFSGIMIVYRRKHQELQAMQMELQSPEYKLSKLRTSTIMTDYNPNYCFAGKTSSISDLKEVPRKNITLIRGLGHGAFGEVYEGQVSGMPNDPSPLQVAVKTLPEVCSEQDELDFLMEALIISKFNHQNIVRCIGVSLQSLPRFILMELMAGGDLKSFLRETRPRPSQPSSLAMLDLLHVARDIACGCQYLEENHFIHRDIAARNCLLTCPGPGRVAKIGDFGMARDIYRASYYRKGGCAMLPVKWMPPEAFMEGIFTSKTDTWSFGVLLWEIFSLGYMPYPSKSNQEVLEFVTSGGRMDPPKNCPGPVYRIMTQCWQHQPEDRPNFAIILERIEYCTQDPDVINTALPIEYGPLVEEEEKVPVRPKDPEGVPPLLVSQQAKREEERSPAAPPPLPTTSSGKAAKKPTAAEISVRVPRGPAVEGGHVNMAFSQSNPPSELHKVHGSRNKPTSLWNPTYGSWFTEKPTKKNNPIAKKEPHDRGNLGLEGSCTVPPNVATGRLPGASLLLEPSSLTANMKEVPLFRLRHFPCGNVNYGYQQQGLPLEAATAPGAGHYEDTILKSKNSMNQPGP"},
  "source": "ChEMBL document CHEMBL5244215",
  "about": "“Recent advancement of piperidine moiety in treatment of cancer- A review” (Eur J Med Chem, 2018)",
  "key": {"[1]": {"molecular_target": "ALK tyrosine kinase receptor (Homo sapiens, UniProt Q9UM73)"}, "[2]": {"molecular_target": "ALK tyrosine kinase receptor (Homo sapiens, UniProt Q9UM73, L1196M)"}},
  "data": [
    {"smiles": "COc1cc(C2CCN(C(=O)CO)CC2)ccc1Nc1ncc(C(F)(F)F)c(Nc2ccc(C3CCN(C(=O)CO)CC3)cc2OC)n1", "values": [
      {"measurement": "IC50", "setting": "[1]", "value": 2, "unit": "nM"},
      {"measurement": "IC50", "setting": "[2]", "value": 3, "unit": "nM"}
    ]}
  ]
}
